Laboratory results: paper PMC8193582
These are yes or no findings as the source states them, for the method shown. For some assays here: In cells and extracts the contact can be indirect. For some assays here: Where a sequence is shown, tags or fusion partners need not be part of it. Some entries that bind do so weakly or less than the wild type.

The chains behind the UniProt entries cited, without tags or fusion partners.
UniProt Q9ULV4: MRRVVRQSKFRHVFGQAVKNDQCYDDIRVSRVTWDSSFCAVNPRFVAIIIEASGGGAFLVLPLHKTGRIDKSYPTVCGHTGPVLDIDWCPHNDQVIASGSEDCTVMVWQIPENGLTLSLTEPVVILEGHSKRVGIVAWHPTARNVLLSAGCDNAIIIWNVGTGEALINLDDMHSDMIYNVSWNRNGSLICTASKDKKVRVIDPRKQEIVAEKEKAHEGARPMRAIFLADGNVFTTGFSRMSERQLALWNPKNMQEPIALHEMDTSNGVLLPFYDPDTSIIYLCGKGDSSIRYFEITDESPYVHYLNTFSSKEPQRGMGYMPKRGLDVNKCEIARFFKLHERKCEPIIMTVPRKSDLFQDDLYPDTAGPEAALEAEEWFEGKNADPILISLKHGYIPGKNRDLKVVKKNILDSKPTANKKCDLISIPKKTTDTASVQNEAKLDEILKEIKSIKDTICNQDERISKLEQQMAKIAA

Experiments:
[1] = target: ARPC1B-TEV-STREP (recombinant) (human) (UniProt O15143); experiment: co-purification (Strep affinity, cation exchange, size exclusion); seven subunits co-expressed in Sf21 cells from three baculoviruses; captured by the double STREP tag on ARPC1A/ARPC1B (StrepTrap HP), then Mono S and Superose12; fractions containing all seven subunits pooled
[2] = target: T1, GFP-tagged MICAL1 (human) (UniProt Q8TDZ2); experiment: co-IP; GFP-Trap agarose bead pulldown from lysates of HeLa cells stably expressing the GFP-tagged bait; cells treated with 200 nM Latrunculin A for 1 h; lysis buffer 50 mM Hepes pH 7.5, 150 mM NaCl, 1.5 mM MgCl2, 1 mM EGTA, 1% Triton X-100, 10% glycerol, 200 nM Latrunculin A; read by immunoblot
T1 sequence: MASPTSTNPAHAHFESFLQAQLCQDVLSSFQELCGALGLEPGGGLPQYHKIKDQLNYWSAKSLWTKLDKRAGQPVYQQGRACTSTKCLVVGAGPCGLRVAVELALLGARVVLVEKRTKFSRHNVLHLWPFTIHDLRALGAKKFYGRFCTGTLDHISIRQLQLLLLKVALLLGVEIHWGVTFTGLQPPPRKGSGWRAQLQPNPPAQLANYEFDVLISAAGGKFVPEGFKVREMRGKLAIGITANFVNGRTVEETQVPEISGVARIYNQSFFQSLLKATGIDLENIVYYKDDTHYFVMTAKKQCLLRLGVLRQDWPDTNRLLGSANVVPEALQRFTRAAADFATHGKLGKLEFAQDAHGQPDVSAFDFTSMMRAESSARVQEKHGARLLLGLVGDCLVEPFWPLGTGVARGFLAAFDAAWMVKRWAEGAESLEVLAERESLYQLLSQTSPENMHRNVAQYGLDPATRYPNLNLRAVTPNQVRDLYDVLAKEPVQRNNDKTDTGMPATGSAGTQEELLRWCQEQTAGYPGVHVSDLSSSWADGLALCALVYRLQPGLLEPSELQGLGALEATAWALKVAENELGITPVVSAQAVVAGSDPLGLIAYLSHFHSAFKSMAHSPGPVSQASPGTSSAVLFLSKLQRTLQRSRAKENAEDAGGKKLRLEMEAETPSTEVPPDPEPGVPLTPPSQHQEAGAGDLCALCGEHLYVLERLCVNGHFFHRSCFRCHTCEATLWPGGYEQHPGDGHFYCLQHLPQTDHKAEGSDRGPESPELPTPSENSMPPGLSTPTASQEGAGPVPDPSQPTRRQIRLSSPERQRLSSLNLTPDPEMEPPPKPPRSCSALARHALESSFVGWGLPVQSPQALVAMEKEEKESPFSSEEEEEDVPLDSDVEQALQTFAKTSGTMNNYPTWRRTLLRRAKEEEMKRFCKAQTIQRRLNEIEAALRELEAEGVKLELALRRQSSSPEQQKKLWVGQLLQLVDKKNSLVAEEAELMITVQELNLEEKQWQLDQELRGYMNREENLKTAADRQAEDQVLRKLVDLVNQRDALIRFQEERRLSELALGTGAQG

Substance | binding [1] | binding [2]
ARPC5L (recombinant) (from UniProt Q9BPX5 1-153) | binds | –
coronin 1C (endogenous) (from UniProt Q9ULV4 1-474) | – | no binding
